Hit rate of the full screen: of about 52,000 sequences, about 210 (0.4%) were called active.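 The calls were made as follows: active = gene whose silencing raises cell survival under the drug, median off-target-corrected z-score across its silencing RNAs 2 or more; inactive = the rest.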 This is one part of the list.
Assay: Resistance to Poly (ADP-Ribose) Polymerase inhibitor: Gene Identification via Genome-wide siRNA Screen
Conditions: mouse BRCA2 R2336H ES cells, olaparib, CellTiter-Glo viability; active compounds read high
How it was run: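 Genome-wide siRNA screen (3 siRNAs/gene, 20 nM) in mouse ES cells carrying hypomorphic BRCA2 R2336H; olaparib 500 nM added 48 h post-transfection, CellTiter-Glo viability 72 h later. Normalized to plate-median negative control; MAD z-scores, gene median, seed-adjusted.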
In the case of GGAAGCGGGAGAUAGAGGATT against Xpo6, the z-score is reported as inactive: 0.538.
With “GCUGGUACUGACGAAAUGGTT against 6330442E02Rik” the z-score was inactive: -0.46.
For “GCGUGUAAGGUCUUCAUCUTT against C130037N17Rik”, the z-score was inactive: 2.85.
For “GGCUGCAUCCAAAACAGAATT against 2810457I06Rik”, the z-score was inactive: 0.756.
In the case of GGAUUAAAUCCGAAAAGCUTT against BC003277, the z-score is reported as inactive: -0.766.
In the case of “CGACGCAUUGAGGCAAUCUTT against 2310057J16Rik”, the z-score is reported as inactive: 0.982.
In the case of CCGAUAAGUAUUAUGGUGCTT against Fh1, the z-score is reported as inactive: -0.566.
With “GGAACUUAUGGACAGUUCATT against A930016D02Rik” the z-score was inactive: -0.345.
For GGGCACAAUUCAAAACUUATT against Pgm1, the z-score was inactive: 0.0163.
With GGAUAGGAUGUAAAGAUCATT against Atp6v0c the z-score was inactive: -1.07.
In the case of GGAUCAUCUCCUCCAUUCUTT against Olfr393, the z-score is reported as inactive: -0.521.
For GGGUGUUGAAAGACUUUUATT against Tnks, the z-score was inactive: 0.127.
For CCAAUCUCCAGUUCAACAATT against Adprtl2, the z-score was inactive: -0.0253.
In the case of GGUAGAGGACCGCUUCUAUTT against Spa17, the z-score is reported as inactive: -1.4.
In the case of GGAGAGCAGACAAAAAUGATT against Efcbp1, the z-score is reported as inactive: 0.688.
For GGGUACACAAGAUGGACUGTT against Jun, the z-score was inactive: -1.55.
In the case of GGGUGUGAGGGAUUUCAUCTT against Ndufa2, the z-score is reported as inactive: -0.979.
For GGCAUUCGAGGAGACUCAUTT against AI415282, the z-score was inactive: -1.13.
With “GGUCUCACUGCUAAUAAAGTT against D730039F16Rik” the z-score was inactive: -0.353.
For CCGCCAAGAUUCUGAACAUTT against Ifitm6, the z-score was inactive: -1.05.
For CCUACGAGUUUUGCAUUUATT against Mcart1, the z-score was inactive: -1.83.
With “CCUCCAGUUACGAUGGAGATT against 4930434E21Rik” the z-score was inactive: -1.5.
For “GGAUGAGAAGGAGAAAUACTT against 4933405K18Rik”, the z-score was inactive: -0.45.
With GGUUUUAUGAGAAUAGAACTT against Zdhhc21 the z-score was inactive: -0.91.
In the case of GGGUCUGUGGGACAUUAUGTT against Tde2l, the z-score is reported as inactive: -0.602.
With GGUUUUCCAUCUCCUCCAGTT against Klrc1 the z-score was inactive: 0.461.
For GCUAAGAGAGAACAUUGAGTT against Ppil5, the z-score was inactive: -1.14.
In the case of “CCAGCUUCAAGGAACAUGGTT against 1700008G05Rik”, the z-score is reported as inactive: -0.0217.
For GGAAGACCAUUGUUGUUAATT against Has2, the z-score was inactive: 2.1.
In the case of CCAGCAUUGAUAGACAGAUTT against AI429612, the z-score is reported as inactive: -0.564.
In the case of GGAUGCAGUAGAAAUGCUGTT against Ank, the z-score is reported as inactive: 2.43.
In the case of GUGGAUACGUGGGAAAGUCTT against Nmnat1, the z-score is reported as inactive: -0.246.
In the case of GGAAACUGUCACAGAUUUUTT against Rgl3, the z-score is reported as inactive: -0.467.
In the case of CCCUGGUAAACACCAAUAGTT against Catna1, the z-score is reported as inactive: 0.576.
In the case of GGGAUGAAUACACUUGUUGTT against Cox5a, the z-score is reported as inactive: 1.38.
For GGAACAUGUCUCCUGAUCUTT against Add3, the z-score was inactive: 0.481.
With GGAUUCAGAAAUCUGGAAATT against Nmnat3 the z-score was inactive: 0.418.
With GGACUUGCAUACCUUGAUCTT against Dcn the z-score was inactive: -0.948.
For “CCACCCGUUUUGUUGUACCTT against 4833418A01Rik”, the z-score was inactive: -0.022.
In the case of “GGAUCUUGGAUAAAGUGUGTT against E130016I23Rik”, the z-score is reported as inactive: 0.018.
For “GGAAGAUGGGAACAGCACUTT against 2510004L01Rik”, the z-score was inactive: 0.903.
For GGCAUCUAUAUCAUCAAAUTT against Pde6a, the z-score was inactive: 0.761.
With “GGACCUGCUCUUGGUCAUUTT against 3110048E14Rik” the z-score was inactive: 2.31.
With CCCUCUGCUCUAUGUGGUCTT against Olfr1040 the z-score was inactive: -0.482.
For GCACUGACACUGUUUAUCGTT against Sync, the z-score was inactive: 0.861.
For CCUUCACUAAGGGUAGCUGTT against LOC574418, the z-score was inactive: -0.986.
For “GGAAGUUUUGAUCACGAUUTT against 4930532D21Rik”, the z-score was inactive: -0.569.
With GCUCCAGACGAUGGUUGAATT against Ppp1r1a the z-score was inactive: 0.17.
With “GGUCUGUAUCCCACUUUUCTT against 6330580J24Rik” the z-score was inactive: 0.368.
In the case of GGCGGAAAAGCAAAUUGGUTT against Pit1, the z-score is reported as inactive: -0.54.
In the case of “CCAACAAGCCUAAUUAAAGTT against Gt(ROSA)26asSor”, the z-score is reported as inactive: 2.59.
With “GGUCAUCUGAUAAAUGAGUTT against 4631423F02Rik” the z-score was inactive: 0.917.
In the case of GGAAUCUAUGAACAUGUUUTT against Pcdh12, the z-score is reported as inactive: 0.631.
With GGCUCGAUUACUGAGUACATT against Bnip2 the z-score was inactive: 0.62.
For GGUUGUGUUGGAGGUUAAGTT against Snta1, the z-score was inactive: -0.839.
In the case of GGUGAAAGCUUUGAUUCUGTT against Zbtb20, the z-score is reported as inactive: 1.87.
With “GGCUGUUAUCCAGAGAGAUTT against E130304F04Rik” the z-score was inactive: -0.592.
With GGUUGUCUCUCAGUAUUCATT against Cct4 the z-score was inactive: -2.48.
With GGUUUCAUCAAAGUGCAUUTT against Rassf5 the z-score was inactive: 0.63.
In the case of GGACAUAGUGUGAUAUCUUTT against Man1c1, the z-score is reported as inactive: -0.572.
For GGACAAGAAAAUGCUAUCATT against Pcsk1, the z-score was inactive: -2.45.
With GGAGCUCACCACAUCCCUATT against Rap2ip the z-score was inactive: -0.956.
In the case of CCCGAGUAACUUUUAUAUCTT against Tdrd1, the z-score is reported as inactive: 0.745.
With GGAGAAAAAUCUAUUACCUTT against Tmem16d the z-score was inactive: -1.38.
In the case of GGAAAUACGGCUUCAUCUATT against Cyp26a1, the z-score is reported as inactive: 0.936.
In the case of GCAUUGUUUCUCUGGUAAUTT against Cd200, the z-score is reported as inactive: 0.0487.
